From paper PMC11649786
Results are given in words; binding and its absence hold for the method and conditions named. In cells and extracts the contact can be indirect. Some entries that bind do so weakly or less than the wild type.

Amino acid sequences for entries named in this document (tags omitted).
UniProt P31274: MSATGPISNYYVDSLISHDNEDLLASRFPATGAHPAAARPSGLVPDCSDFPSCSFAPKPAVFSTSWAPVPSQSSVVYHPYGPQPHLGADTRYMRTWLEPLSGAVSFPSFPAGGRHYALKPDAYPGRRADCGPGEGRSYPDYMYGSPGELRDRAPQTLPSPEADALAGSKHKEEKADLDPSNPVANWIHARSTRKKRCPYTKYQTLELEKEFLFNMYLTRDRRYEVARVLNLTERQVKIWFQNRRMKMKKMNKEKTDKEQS
UniProt P04198: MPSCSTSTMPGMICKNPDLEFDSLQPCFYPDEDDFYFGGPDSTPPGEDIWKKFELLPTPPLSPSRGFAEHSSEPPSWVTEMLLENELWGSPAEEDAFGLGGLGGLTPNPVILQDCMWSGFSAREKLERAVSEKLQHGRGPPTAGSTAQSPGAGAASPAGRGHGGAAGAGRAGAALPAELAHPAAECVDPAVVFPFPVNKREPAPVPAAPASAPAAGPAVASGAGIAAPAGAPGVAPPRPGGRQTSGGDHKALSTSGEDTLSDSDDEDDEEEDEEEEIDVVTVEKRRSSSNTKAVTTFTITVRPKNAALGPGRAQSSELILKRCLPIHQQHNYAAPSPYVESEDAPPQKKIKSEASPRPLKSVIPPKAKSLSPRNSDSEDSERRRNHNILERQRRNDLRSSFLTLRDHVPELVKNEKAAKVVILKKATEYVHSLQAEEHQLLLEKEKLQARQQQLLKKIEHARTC
UniProt P31273: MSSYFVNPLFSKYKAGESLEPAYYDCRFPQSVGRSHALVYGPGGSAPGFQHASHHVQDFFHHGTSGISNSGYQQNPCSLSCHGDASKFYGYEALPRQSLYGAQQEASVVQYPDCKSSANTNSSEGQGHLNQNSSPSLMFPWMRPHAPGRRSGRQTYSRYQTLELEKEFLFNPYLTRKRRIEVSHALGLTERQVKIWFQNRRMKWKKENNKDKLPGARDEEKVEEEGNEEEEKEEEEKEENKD
UniProt Q86U44: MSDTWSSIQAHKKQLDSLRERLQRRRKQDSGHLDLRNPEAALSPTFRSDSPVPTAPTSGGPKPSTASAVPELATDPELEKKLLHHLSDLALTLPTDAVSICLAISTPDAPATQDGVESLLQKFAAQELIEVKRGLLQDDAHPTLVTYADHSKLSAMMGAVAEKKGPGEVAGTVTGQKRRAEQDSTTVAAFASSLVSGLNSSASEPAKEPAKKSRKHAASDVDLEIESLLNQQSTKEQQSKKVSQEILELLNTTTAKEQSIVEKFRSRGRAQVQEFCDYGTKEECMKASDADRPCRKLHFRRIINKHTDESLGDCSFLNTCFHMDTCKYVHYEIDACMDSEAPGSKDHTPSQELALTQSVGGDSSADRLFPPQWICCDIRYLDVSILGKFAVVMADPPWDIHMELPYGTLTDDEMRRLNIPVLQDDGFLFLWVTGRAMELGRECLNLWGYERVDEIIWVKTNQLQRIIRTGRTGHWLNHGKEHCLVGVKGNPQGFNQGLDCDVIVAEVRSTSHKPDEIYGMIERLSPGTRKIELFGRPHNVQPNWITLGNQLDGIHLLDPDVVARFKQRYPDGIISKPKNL

Key:
[1] = molecular target: HOXC9 (human) (UniProt P31274); assay: proximity ligation; PLA in MNA NB cells, HOXC8 and HOXC9 antibodies (Appendix Fig. S5F)
[2] = molecular target: MYCN in trunk neural crest cells (tNCC) (human (endogenous in tNCC from hESC H9)) (UniProt P04198); assay: proximity ligation; Duolink PLA in tNCC fixed in 4% PFA, METTL3 and MYCN antibodies; negative control with only the METTL3 antibody
[3] = molecular target: FLAG-tagged MYCN (Flag-MYCN), Dox-induced in SHEP cells (SHEP^MYCN) (UniProt P04198); assay: proximity ligation; Duolink PLA in SHEP^MYCN cells after 24 h Dox induction, fixed in 4% PFA, METTL3 and MYCN antibodies; negative control with only the METTL3 antibody
[4] = molecular target: FLAG-tagged MYCN (Flag-MYCN), Dox-induced in SHEP cells (SHEP^MYCN) (UniProt P04198); assay: co-IP; lysates of SHEP^MYCN cells after Dox induction for 24 h; IP with MYCN or METTL3 antibody, blotted with METTL3 or MYCN antibodies; IgG as negative control; also after 1 h treatment with 300 nM flavopiridol (interaction not altered)

binding [1]	binding [2]	binding [3]	binding [4]	Substance
binds				HOXC8 (from UniProt P31273 1-242)
	binds	binds	binds	METTL3 (from UniProt Q86U44 1-580) (enzyme)
